Data published in the supplement of paper PMC12067093, “Discovery and optimisation of a covalent ligand for TRIM25 and its application to targeted protein ubiquitination” (Chemical Science, 2025).
Some of the results follow.
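Further: competitive chemoproteomic profiling in live THP-1 cells with an iodoacetamide desthiobiotin (IA-DTB) probe, comparing probe-labelled peptide intensities in compound-treated cells against DMSO-treated controls.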

Protein sequences, listed by entry. Tags and fused reporters are not part of them. Lines headed by an entry give the natural chain unless they say otherwise; changes in a name come on top.
UniProt Q9NQT8: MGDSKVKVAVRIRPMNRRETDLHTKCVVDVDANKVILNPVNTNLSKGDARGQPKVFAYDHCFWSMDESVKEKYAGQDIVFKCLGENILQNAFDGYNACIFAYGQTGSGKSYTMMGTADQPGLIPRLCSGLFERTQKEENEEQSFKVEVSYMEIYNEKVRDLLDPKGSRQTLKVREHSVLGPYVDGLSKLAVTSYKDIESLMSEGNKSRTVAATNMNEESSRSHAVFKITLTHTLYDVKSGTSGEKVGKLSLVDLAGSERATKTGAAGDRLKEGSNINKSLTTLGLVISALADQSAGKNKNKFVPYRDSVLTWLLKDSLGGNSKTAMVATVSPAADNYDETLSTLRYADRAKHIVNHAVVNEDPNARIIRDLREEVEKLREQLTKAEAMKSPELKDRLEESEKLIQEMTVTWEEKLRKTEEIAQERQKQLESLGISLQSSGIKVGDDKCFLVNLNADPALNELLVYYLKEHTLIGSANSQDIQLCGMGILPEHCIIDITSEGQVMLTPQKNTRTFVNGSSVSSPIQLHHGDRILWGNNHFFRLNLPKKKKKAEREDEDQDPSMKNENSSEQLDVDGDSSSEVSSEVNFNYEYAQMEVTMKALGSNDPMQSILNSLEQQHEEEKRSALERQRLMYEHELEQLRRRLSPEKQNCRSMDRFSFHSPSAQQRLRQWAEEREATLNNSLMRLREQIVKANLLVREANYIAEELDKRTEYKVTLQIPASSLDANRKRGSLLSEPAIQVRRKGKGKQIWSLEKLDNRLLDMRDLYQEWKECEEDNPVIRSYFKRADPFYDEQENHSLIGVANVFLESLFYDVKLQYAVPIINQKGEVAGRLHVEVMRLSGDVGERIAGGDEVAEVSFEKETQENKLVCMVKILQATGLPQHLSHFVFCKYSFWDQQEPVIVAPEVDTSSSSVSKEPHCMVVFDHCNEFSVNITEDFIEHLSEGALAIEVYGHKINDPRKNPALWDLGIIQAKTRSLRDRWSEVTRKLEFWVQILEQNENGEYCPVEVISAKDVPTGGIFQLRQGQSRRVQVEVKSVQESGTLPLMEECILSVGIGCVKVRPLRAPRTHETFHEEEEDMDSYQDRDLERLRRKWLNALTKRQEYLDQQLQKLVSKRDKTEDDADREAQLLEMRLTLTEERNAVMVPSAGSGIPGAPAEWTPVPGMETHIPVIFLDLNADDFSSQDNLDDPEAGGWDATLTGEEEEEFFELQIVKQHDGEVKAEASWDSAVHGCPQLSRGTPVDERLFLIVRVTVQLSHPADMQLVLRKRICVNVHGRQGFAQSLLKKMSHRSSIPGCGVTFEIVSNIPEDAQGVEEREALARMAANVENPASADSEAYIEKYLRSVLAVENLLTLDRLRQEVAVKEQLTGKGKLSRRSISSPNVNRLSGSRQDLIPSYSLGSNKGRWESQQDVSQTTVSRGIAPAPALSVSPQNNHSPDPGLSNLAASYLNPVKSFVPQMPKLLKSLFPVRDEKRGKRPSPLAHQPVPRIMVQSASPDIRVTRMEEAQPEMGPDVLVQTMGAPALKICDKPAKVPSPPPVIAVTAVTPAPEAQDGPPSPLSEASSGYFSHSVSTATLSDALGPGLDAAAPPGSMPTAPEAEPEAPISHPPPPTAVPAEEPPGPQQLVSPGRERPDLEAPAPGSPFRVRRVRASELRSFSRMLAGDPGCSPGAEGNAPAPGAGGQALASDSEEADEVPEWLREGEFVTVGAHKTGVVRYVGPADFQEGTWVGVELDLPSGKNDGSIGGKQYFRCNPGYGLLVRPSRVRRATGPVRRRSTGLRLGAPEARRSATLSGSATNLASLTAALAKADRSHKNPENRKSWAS
UniProt Q9BVA0, whole entry, looked up: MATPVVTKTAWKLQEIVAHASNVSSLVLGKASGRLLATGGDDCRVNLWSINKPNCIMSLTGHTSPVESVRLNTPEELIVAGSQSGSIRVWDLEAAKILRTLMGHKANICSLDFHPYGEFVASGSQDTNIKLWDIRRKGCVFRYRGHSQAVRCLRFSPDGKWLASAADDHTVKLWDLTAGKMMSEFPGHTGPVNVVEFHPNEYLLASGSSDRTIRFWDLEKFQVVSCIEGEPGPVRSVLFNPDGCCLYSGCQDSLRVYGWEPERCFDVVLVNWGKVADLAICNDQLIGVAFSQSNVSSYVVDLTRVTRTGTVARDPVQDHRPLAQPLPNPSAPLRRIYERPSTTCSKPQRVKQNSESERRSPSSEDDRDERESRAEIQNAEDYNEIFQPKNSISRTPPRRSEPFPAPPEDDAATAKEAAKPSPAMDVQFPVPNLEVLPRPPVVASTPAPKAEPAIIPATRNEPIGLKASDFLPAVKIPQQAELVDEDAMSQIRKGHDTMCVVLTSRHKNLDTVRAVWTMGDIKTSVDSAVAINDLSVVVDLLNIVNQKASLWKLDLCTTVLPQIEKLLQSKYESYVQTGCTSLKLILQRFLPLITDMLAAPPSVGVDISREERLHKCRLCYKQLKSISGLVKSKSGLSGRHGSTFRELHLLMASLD
UniProt Q9H7Z6: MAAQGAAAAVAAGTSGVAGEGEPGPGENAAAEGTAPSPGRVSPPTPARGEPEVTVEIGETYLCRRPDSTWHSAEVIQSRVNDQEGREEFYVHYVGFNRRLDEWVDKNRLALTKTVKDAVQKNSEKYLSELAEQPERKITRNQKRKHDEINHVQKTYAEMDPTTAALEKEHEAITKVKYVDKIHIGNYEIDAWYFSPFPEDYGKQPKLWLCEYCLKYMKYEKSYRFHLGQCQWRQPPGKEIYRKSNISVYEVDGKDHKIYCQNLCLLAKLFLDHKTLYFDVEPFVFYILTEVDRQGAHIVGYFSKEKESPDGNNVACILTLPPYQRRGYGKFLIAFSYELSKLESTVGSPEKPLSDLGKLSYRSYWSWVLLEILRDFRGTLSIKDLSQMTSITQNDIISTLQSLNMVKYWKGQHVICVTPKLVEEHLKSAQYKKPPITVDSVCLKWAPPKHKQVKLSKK
UniProt O75164: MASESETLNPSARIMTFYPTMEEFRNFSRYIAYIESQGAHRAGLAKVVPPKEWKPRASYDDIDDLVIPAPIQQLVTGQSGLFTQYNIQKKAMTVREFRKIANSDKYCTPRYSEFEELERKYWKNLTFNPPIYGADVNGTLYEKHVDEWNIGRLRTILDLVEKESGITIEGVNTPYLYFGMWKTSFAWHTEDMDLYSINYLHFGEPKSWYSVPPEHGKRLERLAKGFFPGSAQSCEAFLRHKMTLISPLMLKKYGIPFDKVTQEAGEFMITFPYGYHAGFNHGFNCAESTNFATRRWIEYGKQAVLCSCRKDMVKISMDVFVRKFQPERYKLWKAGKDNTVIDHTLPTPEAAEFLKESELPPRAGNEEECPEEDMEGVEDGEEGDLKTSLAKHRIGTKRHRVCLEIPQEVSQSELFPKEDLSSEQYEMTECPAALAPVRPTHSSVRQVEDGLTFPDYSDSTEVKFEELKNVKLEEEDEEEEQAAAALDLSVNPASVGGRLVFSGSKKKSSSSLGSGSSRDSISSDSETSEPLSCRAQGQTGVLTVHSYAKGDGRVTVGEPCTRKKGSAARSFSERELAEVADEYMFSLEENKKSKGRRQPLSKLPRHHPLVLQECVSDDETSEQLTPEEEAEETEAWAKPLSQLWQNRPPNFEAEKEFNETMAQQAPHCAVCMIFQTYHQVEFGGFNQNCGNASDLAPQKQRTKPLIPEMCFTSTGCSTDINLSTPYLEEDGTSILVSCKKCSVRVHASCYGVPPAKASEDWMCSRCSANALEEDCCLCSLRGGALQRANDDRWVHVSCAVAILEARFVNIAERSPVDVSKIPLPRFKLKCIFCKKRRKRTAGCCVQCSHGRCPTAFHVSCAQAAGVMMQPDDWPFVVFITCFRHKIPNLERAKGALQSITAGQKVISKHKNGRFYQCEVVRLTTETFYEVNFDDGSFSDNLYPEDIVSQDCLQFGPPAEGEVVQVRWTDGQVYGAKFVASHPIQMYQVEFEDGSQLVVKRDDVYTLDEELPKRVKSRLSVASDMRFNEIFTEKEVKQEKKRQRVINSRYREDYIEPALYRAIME
UniProt Q7LBC6: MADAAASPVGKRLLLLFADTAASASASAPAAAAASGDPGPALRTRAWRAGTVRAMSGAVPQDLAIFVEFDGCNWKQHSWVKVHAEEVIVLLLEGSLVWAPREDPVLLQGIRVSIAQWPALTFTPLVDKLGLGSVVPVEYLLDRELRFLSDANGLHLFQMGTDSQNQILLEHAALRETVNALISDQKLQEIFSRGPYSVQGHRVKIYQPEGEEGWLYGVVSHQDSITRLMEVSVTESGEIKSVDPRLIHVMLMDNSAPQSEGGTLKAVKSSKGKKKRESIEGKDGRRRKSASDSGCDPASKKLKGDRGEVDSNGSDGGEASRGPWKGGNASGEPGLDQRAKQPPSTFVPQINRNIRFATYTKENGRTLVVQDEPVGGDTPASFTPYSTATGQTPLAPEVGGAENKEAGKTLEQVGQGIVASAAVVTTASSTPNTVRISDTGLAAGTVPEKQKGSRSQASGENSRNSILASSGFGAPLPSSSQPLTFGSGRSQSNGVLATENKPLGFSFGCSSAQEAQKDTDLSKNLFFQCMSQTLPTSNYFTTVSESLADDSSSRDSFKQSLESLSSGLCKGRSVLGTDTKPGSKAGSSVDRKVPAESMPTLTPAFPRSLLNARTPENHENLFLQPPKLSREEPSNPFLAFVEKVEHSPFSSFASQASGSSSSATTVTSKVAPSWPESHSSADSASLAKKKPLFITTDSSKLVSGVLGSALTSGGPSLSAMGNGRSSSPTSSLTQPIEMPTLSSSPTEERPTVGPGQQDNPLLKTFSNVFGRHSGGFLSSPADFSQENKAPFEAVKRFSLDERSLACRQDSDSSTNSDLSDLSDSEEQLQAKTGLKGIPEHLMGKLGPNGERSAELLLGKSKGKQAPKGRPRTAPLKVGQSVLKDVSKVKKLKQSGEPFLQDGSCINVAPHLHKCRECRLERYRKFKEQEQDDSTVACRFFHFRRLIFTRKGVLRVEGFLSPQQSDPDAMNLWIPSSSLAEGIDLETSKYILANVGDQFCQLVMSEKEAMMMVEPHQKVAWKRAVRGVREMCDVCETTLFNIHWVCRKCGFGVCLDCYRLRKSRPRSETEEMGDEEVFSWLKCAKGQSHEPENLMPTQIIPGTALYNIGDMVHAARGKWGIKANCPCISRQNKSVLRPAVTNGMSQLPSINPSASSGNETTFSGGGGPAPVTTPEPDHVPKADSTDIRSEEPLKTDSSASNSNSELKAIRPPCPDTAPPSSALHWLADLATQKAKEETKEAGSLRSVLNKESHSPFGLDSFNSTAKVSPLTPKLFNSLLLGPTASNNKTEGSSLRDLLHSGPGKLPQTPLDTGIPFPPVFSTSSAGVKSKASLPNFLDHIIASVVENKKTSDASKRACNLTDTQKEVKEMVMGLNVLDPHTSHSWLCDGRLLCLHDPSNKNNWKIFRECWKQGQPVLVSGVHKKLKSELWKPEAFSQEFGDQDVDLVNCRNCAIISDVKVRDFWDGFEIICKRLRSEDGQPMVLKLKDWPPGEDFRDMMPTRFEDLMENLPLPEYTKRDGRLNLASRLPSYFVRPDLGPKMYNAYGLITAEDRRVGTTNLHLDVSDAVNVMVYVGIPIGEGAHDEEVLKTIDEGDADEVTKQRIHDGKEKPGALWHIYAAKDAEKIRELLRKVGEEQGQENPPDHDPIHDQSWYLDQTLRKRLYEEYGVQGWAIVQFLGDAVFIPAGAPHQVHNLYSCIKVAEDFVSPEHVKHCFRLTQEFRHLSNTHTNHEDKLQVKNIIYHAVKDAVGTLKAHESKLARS
UniProt Q15046, whole entry, looked up: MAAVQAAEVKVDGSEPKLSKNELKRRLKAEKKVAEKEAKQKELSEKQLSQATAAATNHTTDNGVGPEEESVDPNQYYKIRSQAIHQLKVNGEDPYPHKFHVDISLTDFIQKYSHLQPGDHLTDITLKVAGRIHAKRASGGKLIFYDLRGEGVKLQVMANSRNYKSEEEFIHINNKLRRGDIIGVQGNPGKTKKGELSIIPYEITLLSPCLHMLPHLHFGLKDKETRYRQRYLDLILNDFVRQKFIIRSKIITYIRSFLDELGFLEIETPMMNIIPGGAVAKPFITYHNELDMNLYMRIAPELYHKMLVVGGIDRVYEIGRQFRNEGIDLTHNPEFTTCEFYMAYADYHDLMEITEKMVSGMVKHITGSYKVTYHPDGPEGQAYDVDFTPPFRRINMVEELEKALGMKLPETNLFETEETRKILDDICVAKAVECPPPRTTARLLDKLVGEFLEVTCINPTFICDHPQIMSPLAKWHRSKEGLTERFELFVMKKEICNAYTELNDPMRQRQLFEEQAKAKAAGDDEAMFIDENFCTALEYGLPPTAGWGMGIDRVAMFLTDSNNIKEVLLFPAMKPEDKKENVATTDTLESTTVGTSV

Each target was assayed with CC1Cc2ccccc2N1C(=O)C1CCCN(C1)C(=O)CCl (mixture of isomers) [TRIM25 ligand 11 (diastereomer mixture)] (assay: probe-labelled cysteine peptide fold change vs DMSO (competition) (log2 fold change); higher = less target engagement (more negative = stronger competition)). Settings: 10 µM; THP-1; incubation time: 4 h.
In the case of “ITPR1_Q14643_1471_ACNNTSDR (UniProt Q14643)”, the “probe-labelled cysteine peptide fold change” value is reported as 0.436. In the case of “KANSL3_Q9P2N6_161_LANEGACNEPVLR (UniProt Q9P2N6)”, the “probe-labelled cysteine peptide fold change” value is reported as -0.1. In the case of “KIF13B_Q9NQT8_773_DLYQEWKECEEDNPVIR (UniProt Q9NQT8)”, the “probe-labelled cysteine peptide fold change” value is reported as -0.214. With “KIF1B_O60333_356_CNAVINEDPNAK (UniProt O60333)” the “probe-labelled cysteine peptide fold change” value was -0.00143. With “KATNB1_Q9BVA0_499_GHDTMCVVLTSR (UniProt Q9BVA0)” the “probe-labelled cysteine peptide fold change” value was 0.192. “KIF13B_Q9NQT8_870_LVCMVK (UniProt Q9NQT8)” was tested, and the “probe-labelled cysteine peptide fold change” value was 0.0557. In the case of “KAT8_Q9H7Z6_230_FHLGQCQWR (UniProt Q9H7Z6)”, the “probe-labelled cysteine peptide fold change” value is reported as -0.0637. With “KDM4A_O75164_917_FYQCEVVR (UniProt O75164)” the “probe-labelled cysteine peptide fold change” value was 0.279. In the case of “KAT5_Q92993_234_NIECIELGR (UniProt Q92993)”, the “probe-labelled cysteine peptide fold change” value is reported as -0.0563. In the case of “ITPR1_Q14643_1439_IAYINFLNHCYVDTEVEMK (UniProt Q14643)”, the “probe-labelled cysteine peptide fold change” value is reported as 0.113. For “JAK1_P23458_731_EGIDSECGPFIK (UniProt P23458)”, the “probe-labelled cysteine peptide fold change” value was -0.193. “KDM3B_Q7LBC6_1470_VRDFWDGFEIICK (UniProt Q7LBC6)” was tested, and the “probe-labelled cysteine peptide fold change” value was -0.0683. For “KDM3A_Q9Y4C1_497_VDNESCCSR (UniProt Q9Y4C1)”, the “probe-labelled cysteine peptide fold change” value was 0.428. “KDM2A_Q9Y2K7_1104_YSLTELNMAGCNK (UniProt Q9Y2K7)” was tested, and the “probe-labelled cysteine peptide fold change” value was 0.0922. With “KIF18B_Q86Y91_437_SGPPPEHLPSSPLPPHPPSQPCTPELPAGPR (UniProt Q86Y91)” the “probe-labelled cysteine peptide fold change” value was -0.155. For “KIF11_P52732_43_ASAHSIVECDPVRK (UniProt P52732)”, the “probe-labelled cysteine peptide fold change” value was -0.00394. For “KIDINS220_Q9ULH0_867_FLVTSATNGDVPCSDTTGIQEDADRR (UniProt Q9ULH0)”, the “probe-labelled cysteine peptide fold change” value was -0.0178. With “KBTBD11_O94819_257_DAAYCFMSDHYLEVLREPAVFGR (UniProt O94819)” the “probe-labelled cysteine peptide fold change” value was -0.162. In the case of “IWS1_Q96ST2_749_ALRPGDPGFCAR (UniProt Q96ST2)”, the “probe-labelled cysteine peptide fold change” value is reported as 0.00734. In the case of “JAK2_O60674_961_LLQYTSQICK (UniProt O60674)”, the “probe-labelled cysteine peptide fold change” value is reported as 0.134. With “KIAA0930_Q6ICG6_119_LDYMVTCAVCTR (UniProt Q6ICG6)” the “probe-labelled cysteine peptide fold change” value was -0.00726. “KDM5A_P29375_709_LVCLYHPTDLCPCPMQK (UniProt P29375)” was tested, and the “probe-labelled cysteine peptide fold change” value was -0.0658. For “KATNB1_Q9BVA0_43_LLATGGDDCR (UniProt Q9BVA0)”, the “probe-labelled cysteine peptide fold change” value was 0.0141. In the case of “KDM3B_Q7LBC6_937_FKEQEQDDSTVACR (UniProt Q7LBC6)”, the “probe-labelled cysteine peptide fold change” value is reported as 0.0203. With “KIF11_P52732_740_CENIQK (UniProt P52732)” the “probe-labelled cysteine peptide fold change” value was -0.075. With “KARS_Q15046_456+463_LVGEFLEVTCINPTFICDHPQIMSPLAK (UniProt Q15046)” the “probe-labelled cysteine peptide fold change” value was -0.0508. With “KANK2_Q63ZY3_562_QECQLSR (UniProt Q63ZY3)” the “probe-labelled cysteine peptide fold change” value was -0.0566. For “KIF14_Q15058_1418_AASVQEEFMDAVCDGVGLGMK (UniProt Q15058)”, the “probe-labelled cysteine peptide fold change” value was 0.0728. “IVNS1ABP_Q9Y6Y0_52_AVLACCSPYLFEIFNSDSDPHGISHVK (UniProt Q9Y6Y0)” was tested, and the “probe-labelled cysteine peptide fold change” value was 0.0337. For “KAT8_Q9H7Z6_416_GQHVICVTPK (UniProt Q9H7Z6)”, the “probe-labelled cysteine peptide fold change” value was 0.115. With “KDM4A_O75164_430_EDLSSEQYEMTECPAALAPVRPTHSSVR (UniProt O75164)” the “probe-labelled cysteine peptide fold change” value was -0.0418. “KIF1BP_Q96EK5_371_AVQFGTGELCDAISAVEEK (UniProt Q96EK5)” was tested, and the “probe-labelled cysteine peptide fold change” value was 0.0163. For “KDELC2_Q7Z4H8_495+497_DGMELVPQPEDSTAICQCHR (UniProt Q7Z4H8)”, the “probe-labelled cysteine peptide fold change” value was 0.0709. With “KARS_Q15046_209_KGELSIIPYEITLLSPCLHMLPHLHFGLK (UniProt Q15046)” the “probe-labelled cysteine peptide fold change” value was -0.00824. In the case of “KAT6A_Q92794_508_CPSVIEFGK (UniProt Q92794)”, the “probe-labelled cysteine peptide fold change” value is reported as 0.143. With “KDM3B_Q7LBC6_904_QSGEPFLQDGSCINVAPHLHK (UniProt Q7LBC6)” the “probe-labelled cysteine peptide fold change” value was -0.00194. For “KARS_Q15046_427_KILDDICVAK (UniProt Q15046)”, the “probe-labelled cysteine peptide fold change” value was -0.413.
